# Measured values: patent US12269797B2, “Bifunctional linker for bisconjugation, method of synthesis, and method of use” (priority 2020, dated 2025)
# What was measured:
# RFP = assay: Mass peptide fingerprint site analysis of residues modified by the linker; settings: 1:1 Ib:RFP reaction, trypsin digestion, MS/MS
# [1] = RFP retention on copper-painted substrate after washing (fluorescent microscopy, ImageJ particle count); settings: RFP retained on copper-painted stainless steel after washing
Molecule,arginine modifications (RFP),lysines unambiguously modified (of the 21 lysines of RFP) (RFP; Mascot site analysis probability >89%),Retained (%) [1] [%]
"C#CCOC(=O)c1ccc(C=O)c(C=O)c1 [Ib, Prop-2-yn-1-yl 3,4-diformylbenzoate]",No arginine modifications were detected,12,–
"RFP: Red fluorescent protein expressed from the pBAD-DsRED plasmid in E. coli BL21(DE3), no linker, control (protein, UniProt Q9U6Y8 1-225, looked up) Red fluorescent protein …: MRSSKNVIKEFMRFKVRMEGTVNGHEFEIEGEGEGRPYEGHNTVKLKVTKGGPLPFAWDILSPQFQYGSKVYVKHPADIPDYKKLSFPEGFKWERVMNFEDGGVVTVTQDSSLQDGCFIYKVKFIGVNFPSDGPVMQKKTMGWEASTERLYPRDGVLKGEIHKALKLKDGGHYLVEFKSIYMAKKPVQLPGYYYVDSKLDITSHNEDYTIVEQYERTEGRHHLFL",–,–,2
